The record followed here is PMC2664482.

The chains behind the UniProt entries cited, without tags or fusion partners.
UniProt P27782, whole entry: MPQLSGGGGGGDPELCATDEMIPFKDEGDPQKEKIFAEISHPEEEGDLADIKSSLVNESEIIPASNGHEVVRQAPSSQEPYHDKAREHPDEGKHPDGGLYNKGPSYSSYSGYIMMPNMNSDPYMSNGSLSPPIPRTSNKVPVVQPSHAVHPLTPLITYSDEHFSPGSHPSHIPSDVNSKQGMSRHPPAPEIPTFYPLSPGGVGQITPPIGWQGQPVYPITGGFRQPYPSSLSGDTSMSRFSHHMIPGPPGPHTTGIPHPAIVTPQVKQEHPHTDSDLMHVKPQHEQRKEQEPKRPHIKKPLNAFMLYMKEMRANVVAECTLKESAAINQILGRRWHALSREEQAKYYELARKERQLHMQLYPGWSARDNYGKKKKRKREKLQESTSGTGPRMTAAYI

Series [1] concerns the target LEF-1 (endogenous, N2a-m nuclear extract) (UniProt P27782). Briefly: EMSA supershift. The note with it: anti-LEF-1 antibody, EMSA: 20 ug nuclear protein, 30 min RT, 60-65 mM KCl final, poly dIdC 1 mg/ml, CHAPS 20%, 4.5% acrylamide gel, extract buffer 20 mM Tris pH 7.5, 400 mM NaCl, protein in an extract. On the technique in general: A gel shift assay detects complexes by their altered migration in electrophoresis.

The target is the same in series [2]. Briefly: competition with a labelled probe. The note with it: LEF-1 identity of the complex from the supershift, EMSA: 20 ug nuclear protein, 30 min RT, 60-65 mM KCl final, poly dIdC 1 mg/ml, CHAPS 20%, 4.5% acrylamide gel, extract buffer 20 mM Tris pH 7.5, 400 mM NaCl, protein in an extract.

For at least one entry, the source does not settle the construct or the ends of the probe. Results from cells or extracts need not show a direct contact. For part of these data: A negative result means that nothing was seen under these conditions. For part of these data: At least one verdict was read from the data and is not stated in words by the source.

For “GTCGCCCTTTGATCTTACC / GTCGGGTAAGATCAAAGGG [TCF/LEF wt oligonucleotide]”, the binding result was “binds” in series [1]; “binds” in series [2] (unlabelled wt competitor, 20 and 100 ng).

As for “GTCGCCCTTTGGCCTTACC / GTCGGGTAAGGCCAAAGGG [TCF/LEF mutant oligonucleotide]”, the binding result in series [2] (mutant competitor did not compete, label: unlabelled competitor) is listed as “no binding”.
